Drawing on US20020172680A1, this text covers binding for one substance.

Chains of the proteins cited; added tags and fusions are not shown. Residues count along the entry.
UniProt Q8VDD5, residues 2-1960: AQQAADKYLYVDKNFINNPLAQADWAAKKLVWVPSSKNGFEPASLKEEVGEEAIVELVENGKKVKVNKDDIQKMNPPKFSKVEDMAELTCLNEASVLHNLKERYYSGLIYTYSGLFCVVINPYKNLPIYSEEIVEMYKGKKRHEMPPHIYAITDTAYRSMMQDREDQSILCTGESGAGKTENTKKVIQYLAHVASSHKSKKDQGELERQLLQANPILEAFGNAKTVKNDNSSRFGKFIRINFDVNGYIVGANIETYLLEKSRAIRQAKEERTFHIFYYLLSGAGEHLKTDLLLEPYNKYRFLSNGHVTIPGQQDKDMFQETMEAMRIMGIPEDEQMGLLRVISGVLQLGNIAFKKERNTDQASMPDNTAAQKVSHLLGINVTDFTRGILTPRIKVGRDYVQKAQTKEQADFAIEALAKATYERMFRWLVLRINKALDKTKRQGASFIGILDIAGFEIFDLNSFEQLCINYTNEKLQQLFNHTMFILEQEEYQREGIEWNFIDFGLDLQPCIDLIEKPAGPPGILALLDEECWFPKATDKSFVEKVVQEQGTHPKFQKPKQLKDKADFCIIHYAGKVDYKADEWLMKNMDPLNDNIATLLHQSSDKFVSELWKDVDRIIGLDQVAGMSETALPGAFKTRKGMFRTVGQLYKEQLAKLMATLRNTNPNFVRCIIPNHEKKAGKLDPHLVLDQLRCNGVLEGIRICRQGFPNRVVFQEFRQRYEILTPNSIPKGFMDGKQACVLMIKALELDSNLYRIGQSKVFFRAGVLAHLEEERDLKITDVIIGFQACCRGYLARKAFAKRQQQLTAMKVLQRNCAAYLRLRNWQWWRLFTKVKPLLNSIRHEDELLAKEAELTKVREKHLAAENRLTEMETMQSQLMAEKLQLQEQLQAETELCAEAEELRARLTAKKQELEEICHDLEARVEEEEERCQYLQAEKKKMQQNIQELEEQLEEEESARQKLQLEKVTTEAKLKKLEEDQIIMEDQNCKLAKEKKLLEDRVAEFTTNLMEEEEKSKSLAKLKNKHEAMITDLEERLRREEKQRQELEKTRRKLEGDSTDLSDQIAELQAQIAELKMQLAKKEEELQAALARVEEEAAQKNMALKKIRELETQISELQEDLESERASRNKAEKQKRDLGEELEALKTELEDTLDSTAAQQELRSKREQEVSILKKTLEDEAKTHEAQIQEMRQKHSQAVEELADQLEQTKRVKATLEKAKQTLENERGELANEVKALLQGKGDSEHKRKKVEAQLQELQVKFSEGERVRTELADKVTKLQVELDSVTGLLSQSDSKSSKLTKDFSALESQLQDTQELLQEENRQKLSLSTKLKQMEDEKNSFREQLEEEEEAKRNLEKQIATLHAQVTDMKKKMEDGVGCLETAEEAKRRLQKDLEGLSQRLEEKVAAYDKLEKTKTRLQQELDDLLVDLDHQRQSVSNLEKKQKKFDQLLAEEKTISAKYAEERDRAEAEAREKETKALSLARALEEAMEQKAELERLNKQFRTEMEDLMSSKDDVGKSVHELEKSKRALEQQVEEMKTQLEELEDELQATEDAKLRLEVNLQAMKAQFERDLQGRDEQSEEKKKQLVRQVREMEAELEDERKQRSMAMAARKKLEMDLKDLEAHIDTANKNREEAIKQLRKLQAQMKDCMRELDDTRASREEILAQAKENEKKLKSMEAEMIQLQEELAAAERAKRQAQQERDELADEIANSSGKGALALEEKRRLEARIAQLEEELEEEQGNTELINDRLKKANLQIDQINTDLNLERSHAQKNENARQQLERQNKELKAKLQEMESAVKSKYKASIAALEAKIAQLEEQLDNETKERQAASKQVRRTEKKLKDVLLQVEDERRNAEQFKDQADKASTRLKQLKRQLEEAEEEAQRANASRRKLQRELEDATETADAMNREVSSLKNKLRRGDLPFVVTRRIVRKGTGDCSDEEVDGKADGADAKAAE
UniProt P07091, residues 2-101: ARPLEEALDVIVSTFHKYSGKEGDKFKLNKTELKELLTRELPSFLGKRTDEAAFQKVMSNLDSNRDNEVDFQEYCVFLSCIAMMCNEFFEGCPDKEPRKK

This assay has as its target heavy chain of the non-muscle myosin (200 kDa), cellular, in CSML cell lysates (mouse) (UniProt Q8VDD5). Kind of assay: co-immunoprecipitation from CSML-100 lysates with anti-Mts1 antibody.

These are yes or no findings as the source states them, for the method shown. In cells and extracts the contact can be indirect. Some results given as binding are weak or reduced against the parent protein; the word gives no strength.

As for “mts-1 protein (mouse, endogenous: CSML-100 cells, mouse spleen, serum of mice injected with CSML-100 cells) (from UniProt P07091 2-101)”, the binding entry is reported as “binds”.
